Measurements taken from article PMC12040169 (PLOS Biology, 2025).
This is one part of the list.

What follows are compounds tested on T1, CTL2-GFP (C. trachomatis L2/434/Bu, GFP-expressing). Details: bulk GFP, single well; 28.5 h, 10 µM; inhibitor.
T1 construct: L2/434/Bu, GFP-expressing
Parameters: species or system HeLa; Intracellular C. trachomatis growth in HeLa cells, bulk GFP fluorescence relative to DMSO

SMILES | % of control remaining [%]
O=C(c1ccc2ncccc2c1)N1CCC2(CCN(C(=O)c3cc(F)c(F)cc3F)C2)C1 (stereo not shown) [CBK131391] | 138.67
CCCn1nnnc1NCc1cccc(Cl)c1 [CBK288130] | 115.111
Cc1ccc(/N=N/c2c(O)c(C(=O)Nc3ccc4c(c3)c(=O)[nH]c3ccccc34)cc3ccccc23)c(Cl)c1 [CBK262306] | 117.464
Cc1nc2n(CC#N)c3ccccc3n2n1 [CBK062670] | 117.679
COc1cncc(C(NC(=O)Cn2ccccc2=O)[C@H]2C[C@@H](O)C2)c1 (stereo partly shown) [CBK307557] | 124.826
CCN1CCN(c2ccc(-c3ccc(OCC4CCN(C(=O)OC(C)(C)C)CC4)cn3)cn2)CC1 [CBK174505] | 114.333
O=S(=O)(c1ccc(-c2ccc(S(=O)(=O)N3CCOCC3)cc2)cc1)N1CCOCC1 [CBK261366] | 98.0004
O=C(c1cccnc1)C1CCN(C(=O)c2cc(F)cc(F)c2)CC1 [CBK283746] | 112.025
COc1ccc([C@@]23CC[C@@H](NC(=O)Nc4ccc(F)cc4)C[C@@H]2N(C)CC3)cc1OC [CBK036458T] | 113.185
CCOC(=O)c1sc(Sc2nnc(C(F)(F)F)n2C)c2c1CC(C)(C)CC2=O [CBK005649] | 112.755
O=C(O)/C=C/C(=O)N(Cc1ccc2c(c1)OCO2)C1CC(=O)N(c2ccccc2)C1=O (stereo not shown) [CBK262786] | 99.1167
Cc1cccc(NC(=S)N(CCN(C)C)Cc2cc3cc(C)cc(C)c3[nH]c2=O)c1 [CBK135105] | 100
CC(=O)Nc1ccc(Nc2ncnc3scc(-c4ccccc4)c23)cc1 [CBK264930] | 100
CCn1cc(C(=O)N2CCCCC2c2nc3cc(C)ccc3[nH]2)cn1 (stereo not shown) [CBK283869] | 115.731
NC(CCCCNC(=O)c1ccccc1)C(=O)O (stereo not shown) [CBK261087] | 98.0439
Nc1ncc(-c2ccccc2CO)nc1NC1CCOCC1 [CBK063799] | 176.819
NC(=O)c1c(F)cccc1-c1cc(NCCO)nc2[nH]ccc12 [CBK306689] | 114.672
CCOc1ccc(C2(C)C(=O)N(CN3CCOCC3)C(=O)N2CN2CCOCC2)cc1 (stereo not shown) [CBK261359] | 103.639
COc1cc([C@@]23CCC(=O)C[C@@H]2N(C)CC3)ccc1OCc1ccccc1 [CBK049727] | 53.7124
Cc1ccc(C)c(N2CCN(S(=O)(=O)c3ccc(-c4ccccc4)cc3)CC2)c1 [CBK100692] | 121.804
O=C(CCC(F)(F)F)NCc1csc(-c2ccccc2)n1 [CBK092342] | 126.213
O=C(CCCn1nnc2ccccc2c1=O)NCc1cccc(Cl)c1 [CBK294446] | 147.238
Cc1ccccc1CN1CCN(CC2CC3C=CC2C3)CC1 (stereo not shown) [CBK263402] | 100
O=C(Nc1cccc(N2CCNCC2)c1)c1cccnc1 [CBK029414T] | 77.5059
O=S(=O)(Nc1ccc(-c2nc3cccnc3s2)cc1)c1ccccc1 [CBK287547] | 130.224
COC(=O)c1c(NC(=O)COc2ccccc2C(C)C)sc2c1CCCC2 [CBK266722] | 168.526
COc1cc(S(=O)(=O)NCc2ccc3c(c2)OCO3)c(OC)cc1Cl [CBK264972] | 100

SMILES | % of control remaining [%]
CN1C(=O)CC2(C1=O)C(=O)N(C)c1ccc(F)cc12 (stereo not shown) [CBK075290] | 104.267
CSCCOc1nccnc1N1CCCC1 [CBK115757] | 97.7867
O=C(NCCc1ccc(Cl)cc1)C1CCN(C(=O)CCc2ccccc2F)C1 (stereo not shown) [CBK285931] | 118.987
COC(=O)[C@H]1CCc2ccccc2N1C(=O)C1CC1 [CBK285518] | 132.261
Cc1nc(CN(C)C2CCN(Cc3ccc4c(c3)CCC4)C2)no1 (stereo not shown) [CBK304052] | 140.086
CN(CC(=O)Nc1ccccc1C(N)=O)S(=O)(=O)c1ccc(Br)cc1 [CBK268648] | 85.9259
Cc1cc(COc2nccc(C(F)(F)F)n2)no1 [CBK115800] | 108.89
CCc1nc2c(N3CCCn4nc(C(O)C5CC5)cc4C3)ncnc2o1 (stereo not shown) [CBK307543] | 144.571
CN1CCc2nc(SCC(=O)c3ccc(-c4ccccc4)cc3)c(C#N)c(-c3cccs3)c2C1 [CBK267447] | 175.071
O=C(c1ccco1)N1C2CCC1Cn1c(nc3ccccc3c1=O)C2 (stereo not shown) [CBK284452] | 150.078
CNS(=O)(=O)CCNC(=O)N1CCCN(Cc2ccc(F)cc2)CC1 [CBK304658] | 129.6
CC(=O)Nc1ccc(NC(=O)CN(C2CCCCC2)S(C)(=O)=O)cc1 [CBK266755] | 148.308
Cc1ccc(-c2nc3ccccc3[nH]2)cc1NC(=O)CCCc1ccccc1 [CBK265789] | 148.518
COc1ccc(-c2cc(C(=O)NCC3CCNCC3)cnc2-c2ccc(Cl)cc2)cn1 [CBK036700] | 112.242
CCOc1ccsc1C(=O)Nc1c(OC)cc(F)cc1OC1CCNCC1 [CBK050292T] | 121.808
COC(=O)[C@@H]1CN(C(=O)Nc2ccccc2)CCN1S(C)(=O)=O [CBK289611] | 107.782
CN1CCN(S(=O)(=O)c2ccc(F)cc2)CC1 [CBK050491] | 106.659
CCS(=O)(=O)N1CCN(C(=O)c2ccc3nc(C)c(N(CCOC)Cc4ccc(OC)cc4)n3c2)CC1 [CBK146153] | 185.371
Cc1ccc(C(=O)C(C)OC(=O)c2cc(-c3ccccc3)nc3ccccc23)cc1 (stereo not shown) [CBK264067] | 96.583
COc1ccc(CN2CCCC(c3nccnc3-c3cccc(NC(C)=O)c3)C2)cc1 (stereo not shown) [CBK286135] | 104.636
COc1ccc(C(=O)c2ccc(N3CCN(C4CC(=O)NC4=O)CC3)cc2)cc1F (stereo not shown) [CBK268909] | 156.328
CCSC1CCC(N(C)CC(=O)NCc2ccco2)C1 (stereo not shown) [CBK304823] | 113.448
CCNC(=O)N1CC2(CCN(CCC(N)=O)CC2)c2ccccc21 [CBK144598T] | 103.482
COc1ccc(Nc2cc(-c3cc(OC)c(OC)c(OC)c3)ncn2)c(OC)c1 [CBK090759] | 111.885
O=S(=O)(c1ccccc1)c1cncc(N2CCNCC2)n1 [CBK051078C] | 114.044
O=C(NC1(CN2CCCCC2)CCCCC1)NS(=O)(=O)c1ccc(Cl)cc1 [CBK022858] | 147.416
CCC(CCO)CNc1ncnc2ccc(S(C)(=O)=O)cc12 (stereo not shown) [CBK305157] | 126.624

Filtered by structure, those above with a furan ring, fused or not
SMILES | % of control remaining [%]
O=C(c1ccco1)N1C2CCC1Cn1c(nc3ccccc3c1=O)C2 (stereo not shown) [CBK284452] | 150.078
CCSC1CCC(N(C)CC(=O)NCc2ccco2)C1 (stereo not shown) [CBK304823] | 113.448

More structures

SMILES | % of control remaining [%]
COC(=O)c1cc(C)sc1NC(=S)Nc1ccccc1[N+](=O)[O-] [CBK267047] | 158.404
Cc1cc(NC(=O)CC2CC2)c2ccccc2n1 [CBK116257] | 98.2177
CC(=O)c1ccc(S(=O)(=O)N2CCCCC2CNC(=O)c2ccco2)cc1 (stereo not shown) [CBK051472] | 181.388
COc1nccnc1N1CCN(CC(N)=O)CC1 [CBK084219] | 114.12
NC(=O)CSc1nnc(-c2ccncc2)[nH]1 [CBK026179] | 131.204
Cc1ccc(CN2C[C@@H](N)[C@H](c3cn(C)c4cnccc34)C2)o1 [CBK285180] | 121.889
CC(C)(C)c1ccc(/C=C/C(=O)n2cccn2)cc1 [CBK263645] | 132.902
Cc1[nH]c2ccccc2c1C(=O)CSc1n[nH]c(N)n1 [CBK268056] | 121.491
Nc1cccc(-c2cc(Nc3ccc(C4CCCCC4)cc3)ncn2)c1 [CBK091191] | 145.638
OC1CCC(Nc2nc(-c3ccccc3)cn3ccnc23)CC1 (stereo not shown) [CBK037329] | 165.813
CCC(C)(C)c1ccc(S(=O)(=O)N2CCCN(Cc3c(-c4ccccc4)noc3C)CC2)cc1 [CBK062888] | 103.65
O=C(O)CCSc1ccnc2ccccc12 [CBK122524C] | 111.649
O=C(CC1CCS(=O)(=O)C1)NC1(c2ccc(Cl)cc2)CC1 (stereo not shown) [CBK282773] | 94.2766
CN1CCC(N2CCN(C(=O)c3ccc(-c4cccc(C(F)(F)F)c4)o3)CC2)CC1 [CBK149085] | 106.974
CC1=C(C)CC(C(=O)Nc2ccc(C(=O)NCc3cccnc3)cc2)C(C(=O)O)C1 (stereo not shown) [CBK286567] | 133.891
CCOC(=O)c1cnc(SCc2nc(N)nc(Nc3ccc(C)cc3)n2)nc1N [CBK266292] | 65.6688
NC(=O)C1CCN(C(=S)NC2CC3C=CC2C3)CC1 (stereo not shown) [CBK085970] | 129.621
COc1ccccc1-c1cc(Nc2ccc(N3CCOCC3)cc2)ncn1 [CBK090933] | 175.83
Cc1cc(=O)n(CC(=O)Nc2ccc3c(c2)OCO3)cn1 [CBK287835] | 109.518
CC(Cn1cncn1)C(=O)NC(C)C1CC2CCC1C2 (stereo not shown) [CBK282089] | 112.469
COc1cc(NC(=O)C(C)Oc2cccc(Cl)c2)c(C(=O)O)cc1OC (stereo not shown) [CBK268470] | 121.901
COc1cc(CNC(=O)c2cccnc2Sc2ccc(Cl)cc2)ccn1 [CBK297755] | 112.079
CCCCOc1nccnc1-c1cnc(OC)nc1OC [CBK106756] | 105.961
CCNc1nccnc1-c1ccccc1Cl [CBK037313] | 116.667
CC(=O)NCCCSCc1cn2cccc(C)c2n1 [CBK304809] | 161.472

By substructure: those above with a Cl atom.
SMILES | % of control remaining [%]
CCCn1nnnc1NCc1cccc(Cl)c1 [CBK288130] | 115.111
Cc1ccc(/N=N/c2c(O)c(C(=O)Nc3ccc4c(c3)c(=O)[nH]c3ccccc34)cc3ccccc23)c(Cl)c1 [CBK262306] | 117.464
O=C(CCCn1nnc2ccccc2c1=O)NCc1cccc(Cl)c1 [CBK294446] | 147.238
COc1cc(S(=O)(=O)NCc2ccc3c(c2)OCO3)c(OC)cc1Cl [CBK264972] | 100
O=C(NCCc1ccc(Cl)cc1)C1CCN(C(=O)CCc2ccccc2F)C1 (stereo not shown) [CBK285931] | 118.987
COc1ccc(-c2cc(C(=O)NCC3CCNCC3)cnc2-c2ccc(Cl)cc2)cn1 [CBK036700] | 112.242
O=C(NC1(CN2CCCCC2)CCCCC1)NS(=O)(=O)c1ccc(Cl)cc1 [CBK022858] | 147.416
O=C(CC1CCS(=O)(=O)C1)NC1(c2ccc(Cl)cc2)CC1 (stereo not shown) [CBK282773] | 94.2766
COc1cc(NC(=O)C(C)Oc2cccc(Cl)c2)c(C(=O)O)cc1OC (stereo not shown) [CBK268470] | 121.901
COc1cc(CNC(=O)c2cccnc2Sc2ccc(Cl)cc2)ccn1 [CBK297755] | 112.079
CCNc1nccnc1-c1ccccc1Cl [CBK037313] | 116.667
